# PubChem BioAssay AID743121 | NCATS, 2013
# Assay: 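Knock-downs that sensitise breast cancer cells to camptothecin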 (primary screen)
# Cells: MDA-MB-231 cells, a human breast cancer line
# Reagents: single siRNA against human genes, 20 nM siRNA (0.8 pmol per well)
# Time to read-out: 120 h (drug added 48 h after transfection, read 72 h later)
# Challenge: camptothecin 20 nM (about EC30) for 72 h; vehicle 0.1% DMSO in parallel plates
# Measurement: 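CellTiter-Glo ATP signal, scaled to control siRNA as percent viability; sensitisation given as log2 of untreated divided by camptothecin-treated viability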
# Direction: log2 vehicle/camptothecin viability: higher = stronger sensitisation to camptothecin; viability with camptothecin: higher = more viable cells
# Active means: 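Active genes have an RSA gene-level p-value below 0.001, computed from the ratios of their separate siRNAs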
# Shown is an unselected part of about 26,000 reagents tested. Of all reagents, 167 (0.63%) were called active. 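Calls are per gene from RSA p-values that are not deposited; an individual active-marked siRNA can sensitise only weakly.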 Unmarked entries are inactive. The numbers tell different reagents against one gene apart. Further read-outs or replicates are left out here. No sequences are given here.
gene symbol,siRNA no.,log2 vehicle/camptothecin viability,viability with camptothecin (% of control)
RBPJL,1,-0.318,104
RBPJL,2,-0.936,53.8
RBPJL,3,0.00974,80.9
RBPJL,4,-0.559,21.7
PPP1R1A,1,0.0275,84
PPP1R1A,2,0.14,70.7
PPP1R1A,3,-0.212,89.2
PPP1R1A,4,-0.0796,87.5
RAB40A,1,-0.434,103
RAB40A,2,-0.106,104
RAB40A,3,-0.11,68.7
RAB40A,4,-0.102,101
ASCC2,1,-0.352,84.3
ASCC2,2,-0.257,34
ASCC2,3,-0.348,40.7
ASCC2,4,-0.0859,96.1
CDKN2A,1,-0.33,42.3
CDKN2A,2,-0.392,102
CDKN2A,3,-0.767,95.8
CDKN2A,4,-0.261,58.9
PILRB,1,-0.232,80.7
PILRB,2,1.03,6.18
PILRB,3,0.203,49.2
PILRB,4,-0.15,96.1
UMPS,1,-0.0867,78.5
UMPS,2,-0.0967,73.8
UMPS,3,-0.104,67.5
F2RL1,1,-0.314,57.7
F2RL1,2,-0.0113,44.7
F2RL1,3,-0.315,51.9
F2RL1,4,-0.271,81.1
SLC25A17,1,-0.331,94.8
SLC25A17,2,-0.71,41.2
SLC25A17,3,0.0135,84.9
RSPH14,1,-0.439,64.1
RSPH14,2,-0.111,109
RSPH14,3,-0.241,66.1
RSPH14,4,-0.143,106

Next part (7 carried over from the part before).
gene symbol,siRNA no.,log2 vehicle/camptothecin viability,viability with camptothecin (% of control)
SLC25A17,1,-0.331,94.8
SLC25A17,2,-0.71,41.2
SLC25A17,3,0.0135,84.9
RSPH14,1,-0.439,64.1
RSPH14,2,-0.111,109
RSPH14,3,-0.241,66.1
RSPH14,4,-0.143,106
CNTF,1,-0.223,102
CNTF,2,-0.153,99
CNTF,3,-0.136,100
CNTF,4,-0.0893,49.7
OBSCN,1,-0.144,85.7
OBSCN,2,-0.0497,93.4
OBSCN,3,0.0713,47
OBSCN,4,0.0106,84.2
PEA15,1,-0.0546,76.7
PEA15,2,-0.34,78.4
PEA15,3,-0.204,95.4
PEA15,4,-0.0803,90
LRP8,1,-0.0279,88.9
LRP8,2,-0.24,86.5
LRP8,3,-0.231,69.1
LRP8,4,0.0533,69.9
PPP6C,1,-0.0474,107
PPP6C,2,0.0316,66
PPP6C,3,-0.171,59.7
PPP6C,4,-0.491,105
OR5I1,1,-0.345,78.6
OR5I1,2,0.0857,103
OR5I1,3,-0.264,97.8
OR5I1,4,-0.146,102
DOK4,1,-0.317,63.8
DOK4,2,0.084,85
DOK4,3,0.0115,52.3
DOK4,4,-0.0129,53.3
DTNA,1,-0.338,115
DTNA,2,-0.41,93.9
DTNA,3,-0.177,71.2
DTNA,4,0.52,23.1
DTNA,5,-0.00475,80.8
DTNA,6,-0.197,72.5
DTNA,7,-0.506,75.1
DTNA,8,-0.2,52.8
